Measured values from publication PMC6928865.
These are yes or no findings as the source states them, for the method shown. In cells and extracts the contact can be indirect. Some binding calls cover weakened binding; strength is not graded here. Where a sequence is shown, tags or fusion partners need not be part of it.

Molecular target: T1, VE-cadherin (RFP-tagged at the C-tail) (UniProt P33151)
T1 sequence: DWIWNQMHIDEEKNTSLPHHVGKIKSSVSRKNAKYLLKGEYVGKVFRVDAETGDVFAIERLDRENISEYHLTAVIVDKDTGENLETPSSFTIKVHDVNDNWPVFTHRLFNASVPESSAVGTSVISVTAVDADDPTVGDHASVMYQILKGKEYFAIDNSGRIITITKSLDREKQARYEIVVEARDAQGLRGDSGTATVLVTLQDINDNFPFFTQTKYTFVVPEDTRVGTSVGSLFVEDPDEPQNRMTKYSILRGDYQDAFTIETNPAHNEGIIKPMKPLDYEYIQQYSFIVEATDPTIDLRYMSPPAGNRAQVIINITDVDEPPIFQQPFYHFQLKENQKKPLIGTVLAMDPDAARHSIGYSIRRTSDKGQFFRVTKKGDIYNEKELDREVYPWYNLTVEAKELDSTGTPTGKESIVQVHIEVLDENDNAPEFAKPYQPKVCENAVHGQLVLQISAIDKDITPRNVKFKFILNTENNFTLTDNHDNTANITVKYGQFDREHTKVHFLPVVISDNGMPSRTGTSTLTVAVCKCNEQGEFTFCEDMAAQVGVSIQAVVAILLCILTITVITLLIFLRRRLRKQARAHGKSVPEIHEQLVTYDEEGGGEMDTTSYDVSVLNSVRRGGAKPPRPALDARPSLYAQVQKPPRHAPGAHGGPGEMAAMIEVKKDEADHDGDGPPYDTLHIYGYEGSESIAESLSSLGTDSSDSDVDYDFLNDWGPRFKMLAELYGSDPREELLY
Experiment: co-IP; lysates of transiently transfected HEK-293T cells (1% Triton X-100, 10 mM Tris pH 7.6, 50 mM NaCl, 0.1% BSA); Protein A-Sepharose beads coated with anti-E-cadherin or anti-RFP antibody, or unrelated antibody (Ig), 2 h at 4 °C; Western blot against the HA-tag

B1: catalytically inactive S186A derivative of mouse RHBDL2 (triple N-terminal HA-tag) (enzyme, UniProt A2AGA4 1-302)
chain: MAVAHEMEMESVNLNMEREGKEEPEEEKMKGNGEGKDFPRSRKVHRIVSKWMLPEPVRRTYLERANCLPPPLFIILISLAELAVFIYYAVWKPQKQWITLDTGILESPLTYCPEKREEAWRFISYMLVHAGVQHIVGNLLMQIVLGIPLEMVHKGLRVGLVYLAGVLAGSLASSIFDPLKSLVGAAGGVYALMGGYFMNVIVNFREMIPAFGIVRLLVIILIVASDMGFALYRRFFVPANGSPVSFAAHIAGGFAGMSIGYTVFSCFDKTLLKDPRFWIAIAAYVACLLFAVFFNIFLSPAN
With B1 the binding was “binds”.
